The supplement of paper PMC10849652
Some of the results follow.

By UniProt entry, the sequences of proteins in these tests, tags left out. Where a name states a change or a piece, a line headed by the entry shows the natural chain unless it says otherwise.
UniProt Q9Y3D2: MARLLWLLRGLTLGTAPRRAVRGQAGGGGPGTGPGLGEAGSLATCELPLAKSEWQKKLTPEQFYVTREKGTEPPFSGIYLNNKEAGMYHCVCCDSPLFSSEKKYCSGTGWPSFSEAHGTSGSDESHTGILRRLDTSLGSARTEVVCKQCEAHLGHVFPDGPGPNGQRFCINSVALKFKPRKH
UniProt Q13614, whole entry, looked up: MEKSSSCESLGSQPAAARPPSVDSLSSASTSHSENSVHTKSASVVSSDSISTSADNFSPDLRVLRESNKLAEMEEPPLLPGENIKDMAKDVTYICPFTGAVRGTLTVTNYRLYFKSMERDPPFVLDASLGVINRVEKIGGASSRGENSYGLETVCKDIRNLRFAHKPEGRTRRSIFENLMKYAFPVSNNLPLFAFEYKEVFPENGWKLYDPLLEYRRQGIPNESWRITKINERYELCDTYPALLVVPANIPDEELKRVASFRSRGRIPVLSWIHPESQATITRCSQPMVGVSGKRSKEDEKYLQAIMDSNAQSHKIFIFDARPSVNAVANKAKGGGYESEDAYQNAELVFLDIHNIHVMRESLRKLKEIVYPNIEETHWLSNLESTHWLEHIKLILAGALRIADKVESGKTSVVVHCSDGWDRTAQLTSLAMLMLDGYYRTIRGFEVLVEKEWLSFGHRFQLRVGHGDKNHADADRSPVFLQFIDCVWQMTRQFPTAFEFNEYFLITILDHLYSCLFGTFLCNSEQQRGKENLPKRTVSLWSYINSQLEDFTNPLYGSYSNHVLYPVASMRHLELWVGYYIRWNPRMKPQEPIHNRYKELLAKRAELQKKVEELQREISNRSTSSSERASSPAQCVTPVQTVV
UniProt Q8NCE2: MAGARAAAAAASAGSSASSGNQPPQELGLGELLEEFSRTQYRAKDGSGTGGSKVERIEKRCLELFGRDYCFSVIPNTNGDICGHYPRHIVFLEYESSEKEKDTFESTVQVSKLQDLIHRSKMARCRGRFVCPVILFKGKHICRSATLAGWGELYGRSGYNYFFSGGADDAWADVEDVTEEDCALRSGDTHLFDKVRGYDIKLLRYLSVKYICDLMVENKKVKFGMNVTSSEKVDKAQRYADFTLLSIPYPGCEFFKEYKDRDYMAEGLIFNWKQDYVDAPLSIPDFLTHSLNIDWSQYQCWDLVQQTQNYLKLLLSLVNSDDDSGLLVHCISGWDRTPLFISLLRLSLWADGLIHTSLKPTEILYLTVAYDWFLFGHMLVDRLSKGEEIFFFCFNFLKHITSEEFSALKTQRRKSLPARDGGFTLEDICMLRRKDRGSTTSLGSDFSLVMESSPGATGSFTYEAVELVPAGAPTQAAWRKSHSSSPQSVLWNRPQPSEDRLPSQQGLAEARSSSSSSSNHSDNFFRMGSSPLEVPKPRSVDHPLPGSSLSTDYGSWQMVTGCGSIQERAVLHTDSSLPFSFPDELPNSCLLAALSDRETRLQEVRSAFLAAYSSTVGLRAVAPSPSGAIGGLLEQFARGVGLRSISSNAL
UniProt Q9UDX5: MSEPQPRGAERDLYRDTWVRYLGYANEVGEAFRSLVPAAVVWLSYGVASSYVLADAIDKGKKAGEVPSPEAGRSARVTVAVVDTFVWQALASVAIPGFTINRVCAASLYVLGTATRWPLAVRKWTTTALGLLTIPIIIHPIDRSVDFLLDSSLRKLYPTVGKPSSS
UniProt P00846: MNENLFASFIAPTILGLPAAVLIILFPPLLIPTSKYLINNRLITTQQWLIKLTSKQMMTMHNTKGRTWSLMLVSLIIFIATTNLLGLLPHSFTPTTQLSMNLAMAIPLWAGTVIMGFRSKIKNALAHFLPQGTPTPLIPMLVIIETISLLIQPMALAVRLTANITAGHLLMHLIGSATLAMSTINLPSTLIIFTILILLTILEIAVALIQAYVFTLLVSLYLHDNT
UniProt Q96E11: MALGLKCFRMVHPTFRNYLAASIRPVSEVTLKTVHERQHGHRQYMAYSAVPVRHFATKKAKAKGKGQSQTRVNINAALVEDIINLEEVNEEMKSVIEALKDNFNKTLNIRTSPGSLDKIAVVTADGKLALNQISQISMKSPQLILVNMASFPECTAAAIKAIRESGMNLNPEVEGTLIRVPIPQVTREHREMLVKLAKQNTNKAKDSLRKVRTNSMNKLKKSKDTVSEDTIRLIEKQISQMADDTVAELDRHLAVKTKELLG
UniProt Q99707: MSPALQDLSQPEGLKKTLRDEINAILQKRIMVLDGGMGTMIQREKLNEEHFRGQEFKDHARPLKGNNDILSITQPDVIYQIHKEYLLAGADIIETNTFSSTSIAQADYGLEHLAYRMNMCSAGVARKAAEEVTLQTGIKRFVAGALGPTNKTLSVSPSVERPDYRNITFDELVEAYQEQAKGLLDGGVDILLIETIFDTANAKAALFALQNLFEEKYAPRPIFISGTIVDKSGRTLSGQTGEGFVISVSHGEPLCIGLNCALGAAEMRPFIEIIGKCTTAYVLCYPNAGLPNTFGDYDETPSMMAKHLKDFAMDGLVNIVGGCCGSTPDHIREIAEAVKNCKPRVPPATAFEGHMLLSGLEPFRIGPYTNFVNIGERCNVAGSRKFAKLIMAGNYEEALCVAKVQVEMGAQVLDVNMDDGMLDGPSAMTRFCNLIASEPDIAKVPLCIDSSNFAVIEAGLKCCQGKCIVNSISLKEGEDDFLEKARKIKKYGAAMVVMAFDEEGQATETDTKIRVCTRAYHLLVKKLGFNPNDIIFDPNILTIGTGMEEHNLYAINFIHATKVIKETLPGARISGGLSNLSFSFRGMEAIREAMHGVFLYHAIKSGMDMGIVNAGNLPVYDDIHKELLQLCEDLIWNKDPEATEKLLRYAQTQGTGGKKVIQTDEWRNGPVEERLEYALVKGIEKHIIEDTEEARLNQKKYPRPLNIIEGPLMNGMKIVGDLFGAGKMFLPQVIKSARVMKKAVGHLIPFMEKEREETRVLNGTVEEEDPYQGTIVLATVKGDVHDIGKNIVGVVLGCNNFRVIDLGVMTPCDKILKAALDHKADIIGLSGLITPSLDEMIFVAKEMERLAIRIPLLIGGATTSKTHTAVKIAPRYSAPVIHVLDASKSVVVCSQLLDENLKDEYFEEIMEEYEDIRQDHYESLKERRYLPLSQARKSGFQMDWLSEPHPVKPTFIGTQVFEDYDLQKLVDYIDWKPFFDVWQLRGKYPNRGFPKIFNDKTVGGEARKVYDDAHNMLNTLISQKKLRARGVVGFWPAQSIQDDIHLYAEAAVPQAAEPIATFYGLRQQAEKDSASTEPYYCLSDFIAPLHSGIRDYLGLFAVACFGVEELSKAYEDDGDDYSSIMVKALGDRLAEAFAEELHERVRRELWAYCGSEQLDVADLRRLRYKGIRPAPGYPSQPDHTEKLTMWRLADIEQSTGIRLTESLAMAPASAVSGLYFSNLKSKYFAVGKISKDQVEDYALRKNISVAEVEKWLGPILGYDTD
UniProt P26038, whole entry, looked up: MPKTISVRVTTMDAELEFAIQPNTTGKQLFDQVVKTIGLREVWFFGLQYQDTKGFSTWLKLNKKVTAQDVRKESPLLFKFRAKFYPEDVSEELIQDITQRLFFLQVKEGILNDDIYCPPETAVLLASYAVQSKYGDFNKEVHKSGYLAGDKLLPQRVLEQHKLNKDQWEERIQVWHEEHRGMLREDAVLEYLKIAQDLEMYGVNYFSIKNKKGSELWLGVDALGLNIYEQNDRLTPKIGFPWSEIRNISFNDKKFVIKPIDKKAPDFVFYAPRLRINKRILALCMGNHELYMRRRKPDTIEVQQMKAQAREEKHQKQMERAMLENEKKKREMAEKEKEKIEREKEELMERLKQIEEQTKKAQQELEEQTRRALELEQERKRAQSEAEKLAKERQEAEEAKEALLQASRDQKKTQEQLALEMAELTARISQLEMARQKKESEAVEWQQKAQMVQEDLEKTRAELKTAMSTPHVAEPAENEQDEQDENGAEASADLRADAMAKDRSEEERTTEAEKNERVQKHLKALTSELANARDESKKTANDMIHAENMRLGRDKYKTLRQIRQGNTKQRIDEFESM
UniProt P55157: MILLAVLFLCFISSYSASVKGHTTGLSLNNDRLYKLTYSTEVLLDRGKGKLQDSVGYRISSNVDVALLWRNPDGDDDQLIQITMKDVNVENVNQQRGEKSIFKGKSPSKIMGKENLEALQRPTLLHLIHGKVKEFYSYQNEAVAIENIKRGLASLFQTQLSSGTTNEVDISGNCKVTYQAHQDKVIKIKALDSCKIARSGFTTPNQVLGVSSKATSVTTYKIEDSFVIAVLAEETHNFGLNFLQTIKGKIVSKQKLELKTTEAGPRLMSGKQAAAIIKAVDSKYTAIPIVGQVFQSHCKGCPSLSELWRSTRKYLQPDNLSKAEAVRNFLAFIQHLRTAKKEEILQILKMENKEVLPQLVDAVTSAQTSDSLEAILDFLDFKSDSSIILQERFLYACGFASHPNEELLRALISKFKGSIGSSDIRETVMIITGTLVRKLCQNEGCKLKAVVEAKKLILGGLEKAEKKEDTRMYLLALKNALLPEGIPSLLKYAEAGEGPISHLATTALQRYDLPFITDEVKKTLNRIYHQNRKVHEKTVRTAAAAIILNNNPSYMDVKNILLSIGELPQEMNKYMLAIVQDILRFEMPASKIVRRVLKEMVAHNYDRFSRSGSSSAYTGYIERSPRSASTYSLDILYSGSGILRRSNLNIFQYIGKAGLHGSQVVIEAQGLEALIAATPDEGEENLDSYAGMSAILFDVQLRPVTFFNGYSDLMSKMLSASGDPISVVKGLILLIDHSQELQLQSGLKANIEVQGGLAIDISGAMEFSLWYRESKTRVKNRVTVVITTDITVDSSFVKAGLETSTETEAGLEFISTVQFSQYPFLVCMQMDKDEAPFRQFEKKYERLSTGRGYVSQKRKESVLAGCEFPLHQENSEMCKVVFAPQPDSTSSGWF
UniProt Q49AM1: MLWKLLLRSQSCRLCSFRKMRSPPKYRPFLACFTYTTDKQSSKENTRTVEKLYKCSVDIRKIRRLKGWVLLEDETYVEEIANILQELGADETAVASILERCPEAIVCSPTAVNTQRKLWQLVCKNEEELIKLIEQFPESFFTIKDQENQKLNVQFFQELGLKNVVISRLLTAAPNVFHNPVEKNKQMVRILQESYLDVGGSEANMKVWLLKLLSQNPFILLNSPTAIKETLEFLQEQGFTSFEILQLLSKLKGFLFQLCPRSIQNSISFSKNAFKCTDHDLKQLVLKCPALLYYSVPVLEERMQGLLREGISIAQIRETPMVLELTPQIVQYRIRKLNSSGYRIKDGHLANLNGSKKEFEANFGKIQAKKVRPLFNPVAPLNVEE
UniProt O43312: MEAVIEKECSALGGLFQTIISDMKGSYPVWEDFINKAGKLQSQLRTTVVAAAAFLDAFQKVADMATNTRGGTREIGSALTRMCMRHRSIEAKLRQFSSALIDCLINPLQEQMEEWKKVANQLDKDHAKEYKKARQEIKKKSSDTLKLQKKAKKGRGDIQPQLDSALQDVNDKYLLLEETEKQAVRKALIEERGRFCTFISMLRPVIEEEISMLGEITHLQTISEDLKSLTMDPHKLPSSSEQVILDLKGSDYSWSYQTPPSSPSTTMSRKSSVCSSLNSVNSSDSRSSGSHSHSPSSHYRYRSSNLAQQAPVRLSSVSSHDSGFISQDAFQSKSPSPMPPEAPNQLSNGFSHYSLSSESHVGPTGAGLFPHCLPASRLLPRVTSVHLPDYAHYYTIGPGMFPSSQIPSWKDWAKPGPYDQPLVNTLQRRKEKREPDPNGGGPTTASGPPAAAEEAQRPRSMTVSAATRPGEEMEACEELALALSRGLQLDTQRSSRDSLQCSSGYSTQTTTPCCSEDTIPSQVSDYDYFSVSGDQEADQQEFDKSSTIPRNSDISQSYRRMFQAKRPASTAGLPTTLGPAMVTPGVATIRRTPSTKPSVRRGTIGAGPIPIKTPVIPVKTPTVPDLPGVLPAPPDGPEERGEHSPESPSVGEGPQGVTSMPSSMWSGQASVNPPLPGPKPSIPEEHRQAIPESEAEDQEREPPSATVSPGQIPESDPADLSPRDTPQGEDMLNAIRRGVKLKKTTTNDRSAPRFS
UniProt Q2M296: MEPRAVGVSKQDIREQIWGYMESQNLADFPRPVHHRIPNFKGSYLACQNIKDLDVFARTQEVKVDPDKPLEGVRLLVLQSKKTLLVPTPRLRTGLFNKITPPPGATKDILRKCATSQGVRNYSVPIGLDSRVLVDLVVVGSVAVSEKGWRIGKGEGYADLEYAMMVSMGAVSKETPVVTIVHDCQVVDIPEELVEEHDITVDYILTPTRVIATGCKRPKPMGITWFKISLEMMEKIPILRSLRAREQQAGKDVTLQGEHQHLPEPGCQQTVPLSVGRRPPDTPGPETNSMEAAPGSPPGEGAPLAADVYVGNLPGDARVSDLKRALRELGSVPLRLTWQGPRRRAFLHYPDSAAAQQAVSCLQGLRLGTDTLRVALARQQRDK

Tests used:
Assay in all cases: log2 fold change, soluble protein after heating vs DMSO (PISA); higher = thermal stabilisation; K562 lysate, 10 uM; active = over 0.2 and 3.5 SD of the protein, either way, in both replicates (recomputed)
erlotinib = compound: C#Cc1cccc(Nc2ncnc3cc(OCCOC)c(OCCOC)cc23)c1 [erlotinib]
In short: (§1)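 Quantification was by TMTpro 16plex LC-MS/MS with equalised channel sums, applied to the supernatant after 21,000xg for 90 min. Samples were crude K562 extract at 1 mg/mL protein in PBS pH 7.4 with 1 mM MgCl2, treated with 10 μM compound for 30 min, heated for 3 min across 48°C-58°C, pooled and brought to 0.5% NP-40 at 4°C. Values are log-two fold changes in thermal stability relative to solvent controls, from duplicates.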

[1] = compound: C/C(=N\NC(=O)C1=CC(=CC=C1)S(=O)(=O)N2CCOCC2)/C3=C(C=CC(=C3)Cl)O
In short: as §1

[2] = compound: C1=CC(=CC=C1C2=NC3=C(N2)C=C(C=C3)C(=O)N)OC4=CC=C(C=C4)Cl
In short: as §1

[3] = compound: C1=CC2=C(C=CC(=C2)/C=C\3/C(=O)NC(=NCC4=CC=CS4)S3)N=C1
In short: as §1

[4] = compound: C1=CC2=NC=CN=C2C=C1/C=C/3\C(=O)NC(=O)S3
In short: as §1

[5] = compound: C1=CC=C(C=C1)C2=NC(=C(N2)C3=CC=NC=C3)C4=CC(=C(C=C4)Cl)O
In short: as §1

[6] = compound: C1=CC=C2C(=C1)C3=NNC4=CC=CC(=C43)C2=O
In short: as §1

[7] = compound: C1CCN(C1)C(=O)NC2=CC=CC(=C2)NC3=NC=C(C(=N3)NCCC4=CN=CN4)Br
In short: as §1

[8] = compound: C1CN(CCC1(CC2=CC=C(C=C2)Cl)N)C3=NC=NC4=C3C=CN4
In short: as §1

IRAK-1-4 Inhibitor I = compound: C1COCCN1CCN2C3=CC=CC=C3N=C2NC(=O)C4=CC(=CC=C4)[N+](=O)[O-] [IRAK-1-4 Inhibitor I]
In short: as §1

Measured: log2 fold change

MRPL41 (UniProt Q8IXM3)
inactive: erlotinib -0.099 | [1] 0.082 | [2] 0.004 | [3] 0.078 | [4] -0.023 | [5] 0.014 | [6] -0.069 | [7] 0.095 | [8] -0.001 | IRAK-1-4 Inhibitor I 0.02

MRPL58 (UniProt Q14197)
inactive: erlotinib 0.025 | [1] -0.005 | [2] 0.054 | [3] -0.003 | [4] 0.01 | [5] -0.002 | [6] -0.025 | [7] -0.078 | [8] 0.043 | IRAK-1-4 Inhibitor I -0.012

MRPL28 (UniProt Q13084)
inactive: erlotinib -0.112 | [1] -0.085 | [2] 0.027 | [3] 0.011 | [4] -0.074 | [5] 0.017 | [6] 0.024 | [7] 0.042 | [8] -0.031 | IRAK-1-4 Inhibitor I -0.03

MSRB2 (UniProt Q9Y3D2)
inactive: erlotinib 0.01 | [1] 0.106 | [2] -0.041 | [3] 0.084 | [4] 0.019 | [5] 0.069 | [6] 0.07 | [7] -0.084 | [8] 0.046 | IRAK-1-4 Inhibitor I 0.015

MRPL57 (UniProt Q9BQC6)
inactive: erlotinib -0.059 | [1] 0.065 | [2] -0.016 | [3] -0.126 | [4] -0.096 | [5] -0.047 | [6] 0.04 | [7] 0.05 | [8] -0.016 | IRAK-1-4 Inhibitor I -0.054

MTMR2 (UniProt Q13614)
inactive: erlotinib -0.003 | [1] 0.026 | [2] 0.007 | [3] -0.007 | [4] -0.024 | [5] -0.016 | [6] 0.017 | [7] -0.005 | [8] 0.019 | IRAK-1-4 Inhibitor I -0.007

MRPS18A isoform 2 (UniProt Q9NVS2)
inactive: erlotinib 0.024 | [1] -0.038 | [2] 0.038 | [3] 0.112 | [4] -0.035 | [5] -0.053 | [6] -0.013 | [7] 0.009 | [8] 0.004 | IRAK-1-4 Inhibitor I 0.015

2 entries drawn at random from those above, as already listed:
MRPL28 (UniProt Q13084)
inactive: erlotinib -0.112 | [1] -0.085 | [2] 0.027 | [3] 0.011 | [4] -0.074 | [5] 0.017 | [6] 0.024 | [7] 0.042 | [8] -0.031 | IRAK-1-4 Inhibitor I -0.03

MTMR2 (UniProt Q13614)
inactive: erlotinib -0.003 | [1] 0.026 | [2] 0.007 | [3] -0.007 | [4] -0.024 | [5] -0.016 | [6] 0.017 | [7] -0.005 | [8] 0.019 | IRAK-1-4 Inhibitor I -0.007

Carrying on.

MRPL43 isoform 4 (UniProt Q8N983)
inactive: erlotinib -0.046 | [1] 0.027 | [2] -0.01 | [3] 0.016 | [4] 0.013 | [5] 0.023 | [6] -0.023 | [7] -0.036 | [8] 0.014 | IRAK-1-4 Inhibitor I 0.025

MTFR2 (UniProt Q6P444)
inactive: erlotinib 0.031 | [1] -0.022 | [2] -0.014 | [3] 0.01 | [4] 0.022 | [5] 0.056 | [6] -0.037 | [7] -0.006 | [8] 0.052 | IRAK-1-4 Inhibitor I 0.03

MRPL42 (UniProt Q9Y6G3)
inactive: erlotinib 0.009 | [1] -0.01 | [2] -0.03 | [3] 0.016 | [4] 0.01 | [5] 0.029 | [6] -0.176 | [7] -0.023 | [8] -0.144 | IRAK-1-4 Inhibitor I -0.064

MTMR14 (UniProt Q8NCE2)
inactive: erlotinib 0.018 | [1] -0.015 | [2] -0.004 | [3] -0.005 | [4] 0.004 | [5] -0.012 | [6] -0.011 | [7] -0.032 | [8] 0.017 | IRAK-1-4 Inhibitor I 0.001

MRPL53 (UniProt Q96EL3)
inactive: erlotinib -0.036 | [1] -0.103 | [2] 0.042 | [3] 0.014 | [4] -0.004 | [5] -0.015 | [6] -0.049 | [7] -0.07 | [8] 0.096 | IRAK-1-4 Inhibitor I 0.026

MT-ND4 (UniProt P03905)
inactive: erlotinib -0.073 | [1] -0.118 | [2] -0.012 | [3] -0.104 | [4] -0.024 | [5] -0.038 | [6] 0.144 | [7] 0.008 | [8] 0.076 | IRAK-1-4 Inhibitor I 0.004

MTFP1 (UniProt Q9UDX5)
inactive: erlotinib -0.006 | [1] 0.092 | [2] 0.035 | [3] 0.041 | [4] -0.043 | [5] -0.003 | [6] 0.081 | [7] -0.044 | [8] 0.044 | IRAK-1-4 Inhibitor I -0.058

MT-ATP6 (UniProt P00846)
inactive: erlotinib -0.076 | [1] 0.032 | [2] -0.064 | [3] -0.166 | [4] 0.032 | [5] -0.03 | [6] 0.165 | [7] -0.044 | [8] -0.034 | IRAK-1-4 Inhibitor I 0.087

MRRF (UniProt Q96E11)
inactive: erlotinib -0.011 | [1] -0.006 | [2] 0.005 | [3] 0 | [4] 0.021 | [5] -0.008 | [6] -0.017 | [7] 0.064 | [8] 0.049 | IRAK-1-4 Inhibitor I 0.009

MTR (UniProt Q99707)
inactive: erlotinib -0.005 | [1] -0.044 | [2] 0.011 | [3] 0.002 | [4] 0.014 | [5] 0.002 | [6] -0.029 | [7] -0.029 | [8] 0.006 | IRAK-1-4 Inhibitor I -0.006

MSN (UniProt P26038)
inactive: erlotinib -0.015 | [1] 0.045 | [2] 0.006 | [3] -0.019 | [4] -0.032 | [5] -0.007 | [6] 0.014 | [7] 0.014 | [8] 0 | IRAK-1-4 Inhibitor I -0.006

MTX2 (UniProt O75431)
inactive: erlotinib 0.034 | [1] 0.028 | [2] 0.007 | [3] -0.015 | [4] 0.012 | [5] -0.017 | [6] -0.084 | [7] -0.007 | [8] 0.031 | IRAK-1-4 Inhibitor I -0.015

MRPL38 (UniProt Q96DV4)
inactive: erlotinib -0.05 | [1] 0.024 | [2] 0.019 | [3] 0.084 | [4] -0.01 | [5] 0.041 | [6] 0.038 | [7] 0.024 | [8] 0.074 | IRAK-1-4 Inhibitor I -0.001

MRPL40 (UniProt Q9NQ50)
inactive: erlotinib -0.003 | [1] 0.035 | [2] 0.017 | [3] 0.015 | [4] 0.005 | [5] 0 | [6] -0.079 | [7] 0.047 | [8] -0.028 | IRAK-1-4 Inhibitor I 0.003

MRPS28 (UniProt Q9Y2Q9)
inactive: erlotinib -0.019 | [1] 0.005 | [2] -0.032 | [3] 0.031 | [4] -0.009 | [5] -0.021 | [6] 0.003 | [7] 0.012 | [8] 0.039 | IRAK-1-4 Inhibitor I -0.066

MTMR1 (UniProt Q13613)
inactive: erlotinib 0.044 | [1] 0.134 | [2] 0.105 | [3] 0.021 | [4] -0.051 | [5] 0.058 | [6] -0.059 | [7] -0.013 | [8] 0.067 | IRAK-1-4 Inhibitor I -0.039

MRTFA (UniProt Q969V6)
inactive: erlotinib 0.096 | [1] -0.288 | [2] -0.015 | [3] 0.019 | [4] -0.04 | [5] 0.028 | [6] -0.108 | [7] 0.012 | [8] 0.006 | IRAK-1-4 Inhibitor I 0.057

MRPS23 (UniProt Q9Y3D9)
inactive: erlotinib 0.013 | [1] 0.072 | [2] -0.015 | [3] 0.004 | [4] -0.02 | [5] 0.008 | [6] -0.041 | [7] 0.005 | [8] 0.038 | IRAK-1-4 Inhibitor I -0.008

MTTP (UniProt P55157)
inactive: [4] -0.107

MTERF2 (UniProt Q49AM1)
inactive: erlotinib 0.093 | [2] 0.058 | [5] -0.045 | [7] 0.053 | [8] 0.108 | IRAK-1-4 Inhibitor I 0.037

MTMR4 (UniProt Q9NYA4)
inactive: erlotinib 0.054 | [1] 0.213 | [2] -0.122 | [3] 0.018 | [5] -0.091 | [6] -0.35 | IRAK-1-4 Inhibitor I -0.002

MTHFR (UniProt F8W9T8)
inactive: [4] -0.211

MTSS1 isoform 5 (UniProt O43312)
inactive: [5] -0.591 | IRAK-1-4 Inhibitor I -1.35

MRPS15 (UniProt P82914)
inactive: erlotinib 0.06 | [2] -0.011 | [4] 0.004 | [5] -0.029 | [7] -0.075 | [8] -0.016 | IRAK-1-4 Inhibitor I -0.022

MTPAP (UniProt Q9NVV4)
inactive: erlotinib -0.013 | [1] -0.001 | [2] 0.083 | [3] -0.022 | [5] -0.018 | [6] -0.039 | [7] 0.023 | [8] 0.096 | IRAK-1-4 Inhibitor I -0.047

MTHFSD (UniProt Q2M296)
inactive: erlotinib -0.087 | [2] -0.041 | [4] 0.005 | [7] 0.001 | [8] 0.096
